The source of these data is PMC7819943, “Rice protein-binding microarrays: a tool to detect cis-acting elements near promoter regions in rice”.

Chains of the proteins cited; added tags and fusions are not shown.
UniProt Q0JBA9, entry or part of it: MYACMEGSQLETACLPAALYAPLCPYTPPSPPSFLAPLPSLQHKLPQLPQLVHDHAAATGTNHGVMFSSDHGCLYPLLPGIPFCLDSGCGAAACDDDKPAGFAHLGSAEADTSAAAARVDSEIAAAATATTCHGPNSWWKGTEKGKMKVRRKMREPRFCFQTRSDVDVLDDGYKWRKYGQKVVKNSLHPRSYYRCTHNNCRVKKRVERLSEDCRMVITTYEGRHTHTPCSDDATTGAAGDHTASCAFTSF

This is one part of the list.

The assay concerns the target OsWRKY34 (Oryza sativa, UniProt Q0JBA9 1-250). The assay can be described thus: protein-binding microarray (RPBM); PBS, 2% BSA, 51.3 ng/ul salmon testes DNA, 50 uM zinc acetate, 200 nM TF, 25 C, 1 h; high values mean tight binding. The settings on record: protein: recombinant; tags: N-terminal polyhistidine and DsRed monomer fusion (pET32a); label: CyDye5-dUTP incorporated in the synthesized complementary strand; 3' TTTTT single-stranded linker to array surface; dsDNA, one strand shown. In short, it runs like this: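 A custom Agilent array was converted to double-stranded form by primer extension with Cy5-dUTP and blocked with 2% BSA. Protein at 200 nM in PBS with 2% BSA, salmon testes DNA and 50 µM zinc acetate was applied for 1 h at 25 °C, followed by washing. The proteins were polyhistidine–DsRed N-terminal fusions of transcription factors, expressed in E. coli BL21-CodonPlus and Ni–NTA-purified. The binding signal is per-feature fluorescence intensity (arbitrary units) from an Axon 4000B scanner.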
Turning to “GGGTTCATTATGCAGTAATCTCAGCTAGAATGCTTTAGGACGGAGTCACCTAGTGCAG”, the binding signal was 8540 fluorescence intensity (a.u.).
In the case of “TGCGCTAACGTCTCCAAACGTCGTTCATCTCATTCTTACCCGGAGTCACCTAGTGCAG”, the binding signal is 9240 fluorescence intensity (a.u.).
Then “ACTCCTTTTGGTCCTGCAGCTTCTGTGTTCAACATATTTTCGGAGTCACCTAGTGCAG”, with 14000 fluorescence intensity (a.u.); and “TCCTCTCAACTTTGGTAGTTTGTCACCTGCATATGAATATCGGAGTCACCTAGTGCAG”, with 9870 fluorescence intensity (a.u.).
Take “ATATCACAACTTGACTGCTTGTTGTCTTGTGGGAATTATTCGGAGTCACCTAGTGCAG”: the binding signal was 9770 fluorescence intensity (a.u.).
Regarding “TTCACTGTGGCTGGCTACTCACTCCATCCTGCACATCGAGCGGAGTCACCTAGTGCAG”, the binding signal was 9080 fluorescence intensity (a.u.).
In the case of “AAAATAATTCTCAGCCCAACAAAATACAAAGAATAATTCTCGGAGTCACCTAGTGCAG”, the binding signal is 8660 fluorescence intensity (a.u.).
In the case of “TAGTCTTTTATTTTTTTTATCAAATTGTCACATAAGCGCCCGGAGTCACCTAGTGCAG”, the binding signal was 8390 fluorescence intensity (a.u.).
“TTTTCATGTTTTCCGTATCAACCACTTAATCTTTATCTTTCGGAGTCACCTAGTGCAG”: the binding signal was 10100 fluorescence intensity (a.u.).
For “GCTGGTTGCATGGATCTCCGGTGGGCTTGTCGGGAAAGTACGGAGTCACCTAGTGCAG”, the binding signal was 10700 fluorescence intensity (a.u.).
“CACGTGTTCCGCCGCCCGCACACGCGGCGTCCCGTCCAGTCGGAGTCACCTAGTGCAG”: the binding signal is 12700 fluorescence intensity (a.u.).
With “TTTGTGGACATTTCTACCCCTAGGCCCACCTGTCAGATCCCGGAGTCACCTAGTGCAG”, the binding signal was 8550 fluorescence intensity (a.u.).
Then “GCCATTTGTACGTTTCTATTTTCTCAGTAATCAGACCATTCGGAGTCACCTAGTGCAG”, with 11600 fluorescence intensity (a.u.); and “CATTCGCCTCGCCGCCGCCCGCCTGTTTTCTCGGTCGCGTCGGAGTCACCTAGTGCAG”, with 10500 fluorescence intensity (a.u.).
As for “ACTCTCTCGGTGTGCGCGCTCTCCGCCTCCGCCTTCCAAGCGGAGTCACCTAGTGCAG”, the binding signal was 11300 fluorescence intensity (a.u.).
In the case of “CGTTGATTTGGTTTGGGTTAGTTATGGGTTTGATTTTTTTCGGAGTCACCTAGTGCAG” it was 20600 fluorescence intensity (a.u.); in that of “CAATGGAGGGGTGTTTTTTTTTCTATTTTTCTAAATAATTCGGAGTCACCTAGTGCAG”, 14800 fluorescence intensity (a.u.); in that of “ACTCTAACACTGTTTGATCTTCTATGATGCTCTGAACATCCGGAGTCACCTAGTGCAG”, 8440 fluorescence intensity (a.u.).
Then “GTAGCCCTTGTCGTCATCGTCCTTTTGGATCTCAAAGTCTCGGAGTCACCTAGTGCAG”, with 8570 fluorescence intensity (a.u.); and “CGTTCTTATCCACTCATTCCACTGTAATGGGATTGTTTGTCGGAGTCACCTAGTGCAG”, with 9000 fluorescence intensity (a.u.); and “AACTTCGCAAGAGGCATGCTCTCCAGCCTCAATTTTCATGCGGAGTCACCTAGTGCAG”, with 8410 fluorescence intensity (a.u.).
In the case of “TTCCCAGATATATAGGTTCCGTGCTCATGGATTTTCGTTCCGGAGTCACCTAGTGCAG”, the binding signal was 8870 fluorescence intensity (a.u.).
In the case of “TCCTCGGCTCGGCCGTGGCTGCTAGCTGCCTGCCTTTAAACGGAGTCACCTAGTGCAG” it was 8870 fluorescence intensity (a.u.); in that of “GTTCCCAAGTTGTCTGCTGCTTCCGTAACGTCAAAATTCGCGGAGTCACCTAGTGCAG”, 10200 fluorescence intensity (a.u.).
Regarding “TGTGGTTGAGGGATACTCACTCCTTTCCAAATTTATCATCCGGAGTCACCTAGTGCAG”, the binding signal was 9170 fluorescence intensity (a.u.).
Take “TGATCGCTCGCCGCCGCGGCCGCTCTCCCGCCGGCGCCGCCGGAGTCACCTAGTGCAG”: the binding signal is 9560 fluorescence intensity (a.u.).
Then “CCAGTGCGACCTCCACTTCCGAGGCTTTCACACCGTGCGACGGAGTCACCTAGTGCAG”, with 11400 fluorescence intensity (a.u.); and “AACCCTGCAATGAAATTGCTGCTCCTAGTATATACTGTATCGGAGTCACCTAGTGCAG”, with 8850 fluorescence intensity (a.u.).
As to “ATGTTGCCAATCAATTCCAGCCAGGCGCACTAGCAATCTTCGGAGTCACCTAGTGCAG”, the binding signal is 8310 fluorescence intensity (a.u.).
Turning to “TCCTAATAATGGTGTTAGGGTATCAACTGGGTTCAAGTATCGGAGTCACCTAGTGCAG”, the binding signal was 8580 fluorescence intensity (a.u.).
Take “AGTGTTAGAATAGTGTTTTTCTTTTTTCAGTTGAGCTGTACGGAGTCACCTAGTGCAG”: the binding signal is 9170 fluorescence intensity (a.u.).
Then “AGTTTTGTTGACTGACTTAAGGCTTTATTTCTCACTGTGGCGGAGTCACCTAGTGCAG”, with 8750 fluorescence intensity (a.u.); and “TGTACTTCCATGCTATTTCTATGAATTATCAGTCGTACCTCGGAGTCACCTAGTGCAG”, with 9340 fluorescence intensity (a.u.).
In the case of “CACCAAACCCCAACCCACCTCCAGGTCATCCACCCACATCCGGAGTCACCTAGTGCAG”, the binding signal was 8430 fluorescence intensity (a.u.).
In the case of “CCACTGCCAAAGCTATCTGTATCGTCATTTTGCATGTTTCCGGAGTCACCTAGTGCAG”, the binding signal was 12200 fluorescence intensity (a.u.).
Take “CCTTGAAGTCTAGCTGGAGTAATACCCTTGTGCAAATCCTCGGAGTCACCTAGTGCAG”: the binding signal was 8070 fluorescence intensity (a.u.).
For the sequence “CGAGCTAGAGCGTATATTCTGGTCCCGTTCATTTCTTCAACGGAGTCACCTAGTGCAG”, the binding signal was 10300 fluorescence intensity (a.u.).
Consider “CCCCAGCCGACTTAATGGCCCAACCGTCTTCTCTGGTTGTCGGAGTCACCTAGTGCAG”, for which the binding signal is 9210 fluorescence intensity (a.u.).
In the case of “GTGGTTTGTGCACCGTGCACCCGAGCTGGTTATTATTATACGGAGTCACCTAGTGCAG”, the binding signal was 8460 fluorescence intensity (a.u.).
Regarding “GCGGCGCCATTTTCCGTTCAGCTCACTTTTGCCTCTCTTCCGGAGTCACCTAGTGCAG”, the binding signal was 11300 fluorescence intensity (a.u.).
As for “CGGCTGCCGCGACTCCACCACCTCTCCTCGCTTTGCTTGCCGGAGTCACCTAGTGCAG”, the binding signal was 8960 fluorescence intensity (a.u.).
“ATTAACCCCGCGCGATCTCTCTATATAGGCATATACTATGCGGAGTCACCTAGTGCAG”: the binding signal was 11200 fluorescence intensity (a.u.).
